Article PMC7002338

Target: T1, GntR (UniProt Q8NMP1)
T1 sequence (looked up, limits assumed): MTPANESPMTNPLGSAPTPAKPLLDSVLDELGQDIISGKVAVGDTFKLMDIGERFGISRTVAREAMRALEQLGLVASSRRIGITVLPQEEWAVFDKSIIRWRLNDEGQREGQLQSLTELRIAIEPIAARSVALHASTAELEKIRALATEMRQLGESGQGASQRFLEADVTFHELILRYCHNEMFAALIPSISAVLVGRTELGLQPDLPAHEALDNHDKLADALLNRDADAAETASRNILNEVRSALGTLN
Assay: EMSA
Settings: EMSA: 14 nM DNA, pH and temperature in Text S1, recombinant protein, protein details: His-tag, probe letters rebuilt from the primers and the genome

“AGCGACGCCGCAGGGGGATCCGCTCAAGGAAGAGTTCTTCATTGGTCTTTTGTTGCGGGTTGCCGTAGATGATTTCAGGGTGGCTCAAAGTCAGGGAGGTGTAGTCGAATTCGATTGGGTGAAGCCTGTCGCGATTACGGTTTTCGCGCTCGGTACCAGTAATAAAGCTTGCGATGCGGGAGTAATTAACCCGACCTTTGATAAATACCTGAGTGCCTTCTTTGAGGCTTGATGCCTTGATCTTTTCGGCGACTGGTGCTGGCTGCACAGGTTGAGGGGTAACTGGGTAGGTCATGAGAGAAAAAGCCTTTCGAGAACTGGGTGTAGTGATTTCTGTTGCAGGTTTATGTAGACGAAACTTTAAAAAACCTATATGTTAATAGTAACAGAAATTAATAAGATACTAGAGTTATGATAGTACCAATTTAATTTGTAGTATCCAGGGAACATTAAACGGGTAAAGGTAAAGGACAAACGAACATGGCGATTAAAGGCGCAATGCCGAAAAATTGAACTTTAAGAAGGAGATATCA (double strand) [Plys_CS_0 (EMSA)]”: binds (14 nM DNA, no effector, shift at low GntR concentrations); binds more weakly (100 mM gluconate (effector), GntR dissociates); binds (100 mM glucose (no effector)).
“TGATATCTCCTTCTTAAAGTTCAATTTTTCGGCATTGCGCCTTTAATCGCCATGTTCGTTTGTCCTTTACCTTTACCCGTTTAATGTTCCCTGGATACTACAAATTAAACTCTAGTATCTTATTAATTTCTGTTACTATTAACATATAGGTTTTTTAAAGTTTCGTCTACATAAACCTGCAACAGAAATCACTACACCCAGTTCTCGAAAGGCTTTTTCTCTCATGACCTACCCAGTTACCCCTCAACCTGTGCAGCCAGCACCAGTCGCCGAAAAGATCAAGGCATCAAGCCTCAAAGAAGGCACTCAGGTATTTATCAAAGGTCGGGTTAATTACTCCCGCATCGCAAGCTTTATTACTGGTACCGAGCGCGAAAACCGTAATCGCGACAGGCTTCACCCAATCGAATTCGACTACACCTCCCTGACTTTGAGCCACCCTGAAATCATCTACGGCAACCCGCAACAAAAGACCAATGAAGAACTCTTCCTTGAGCGGATCCCCCTGCGGCGTCGCT (double strand) [Plys (EMSA)]”: binds more weakly (14 nM DNA, lacks the shift at low GntR concentrations).

The exact form of at least one protein or probe is not confirmed. The comparison behind a weaker result is the experiment's own reference, which may not be listed here. Tags and fusion partners may be left off the protein sequences shown. At least one verdict rests on a figure or table, not on a statement of the authors.
